Reference: paper PMC4536226

Molecular target: T1, Myc-tagged Cos2 (Myc-Cos2) (Drosophila) (UniProt O16844)
T1 sequence: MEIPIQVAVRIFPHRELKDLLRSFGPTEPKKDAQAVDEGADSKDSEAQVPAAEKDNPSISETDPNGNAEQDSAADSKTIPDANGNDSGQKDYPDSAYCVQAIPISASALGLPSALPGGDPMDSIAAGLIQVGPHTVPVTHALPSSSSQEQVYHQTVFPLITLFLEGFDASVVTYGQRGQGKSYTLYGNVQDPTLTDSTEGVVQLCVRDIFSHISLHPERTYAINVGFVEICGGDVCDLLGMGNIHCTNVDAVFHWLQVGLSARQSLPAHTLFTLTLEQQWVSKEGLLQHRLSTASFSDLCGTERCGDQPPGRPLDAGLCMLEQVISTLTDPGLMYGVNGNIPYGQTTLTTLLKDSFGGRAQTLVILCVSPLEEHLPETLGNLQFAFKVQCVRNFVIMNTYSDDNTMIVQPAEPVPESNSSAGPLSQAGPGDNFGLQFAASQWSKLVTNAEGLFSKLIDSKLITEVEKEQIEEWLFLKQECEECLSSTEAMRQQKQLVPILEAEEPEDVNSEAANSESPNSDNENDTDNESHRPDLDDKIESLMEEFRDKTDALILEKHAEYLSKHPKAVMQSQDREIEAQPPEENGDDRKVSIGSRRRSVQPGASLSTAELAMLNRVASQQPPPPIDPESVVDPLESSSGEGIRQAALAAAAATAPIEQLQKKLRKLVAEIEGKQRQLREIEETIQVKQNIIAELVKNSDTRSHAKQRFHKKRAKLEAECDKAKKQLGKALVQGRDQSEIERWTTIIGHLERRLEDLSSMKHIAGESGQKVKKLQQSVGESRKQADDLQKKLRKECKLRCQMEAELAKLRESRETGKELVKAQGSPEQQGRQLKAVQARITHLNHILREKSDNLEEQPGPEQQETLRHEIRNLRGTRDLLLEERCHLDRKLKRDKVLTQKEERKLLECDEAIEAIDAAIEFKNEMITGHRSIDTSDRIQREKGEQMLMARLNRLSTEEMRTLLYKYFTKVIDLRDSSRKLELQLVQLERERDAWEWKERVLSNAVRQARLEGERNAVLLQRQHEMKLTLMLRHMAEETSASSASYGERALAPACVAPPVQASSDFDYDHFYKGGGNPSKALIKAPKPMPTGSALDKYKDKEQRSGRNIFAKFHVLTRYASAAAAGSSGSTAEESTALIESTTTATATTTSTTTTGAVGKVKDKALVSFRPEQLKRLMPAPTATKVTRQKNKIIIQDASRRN
Experiment: co-IP; S2R+ cells transfected with FLAG-Ci variants and Myc-Cos2, and with dsRNA against Su(fu); either anti-FLAG or anti-Myc IP; lysis in PBS with 1.0% Triton X-100

Q: Which binding does the source give for “CiZnCΔCORD (Drosophila) (domain or fragment)” here?
A: The binding was “binds weakly”.

No constants are given. Whether binding was seen depends on the method and setting. In cells and extracts the contact can be indirect. Binding can be weak; no strength is given. Where a sequence is shown, tags or fusion partners need not be part of it.
